Experimental data reported in PMC8382200.
No constants are given. Whether binding was seen depends on the method and setting. In cells and extracts the contact can be indirect. For some assays here: Binding calls can cover weak binding; strength is not graded here.

The chains behind the UniProt entries cited, without tags or fusion partners. Where a name states a change or a piece, a line headed by the entry shows the natural chain unless it says otherwise.
UniProt P35240: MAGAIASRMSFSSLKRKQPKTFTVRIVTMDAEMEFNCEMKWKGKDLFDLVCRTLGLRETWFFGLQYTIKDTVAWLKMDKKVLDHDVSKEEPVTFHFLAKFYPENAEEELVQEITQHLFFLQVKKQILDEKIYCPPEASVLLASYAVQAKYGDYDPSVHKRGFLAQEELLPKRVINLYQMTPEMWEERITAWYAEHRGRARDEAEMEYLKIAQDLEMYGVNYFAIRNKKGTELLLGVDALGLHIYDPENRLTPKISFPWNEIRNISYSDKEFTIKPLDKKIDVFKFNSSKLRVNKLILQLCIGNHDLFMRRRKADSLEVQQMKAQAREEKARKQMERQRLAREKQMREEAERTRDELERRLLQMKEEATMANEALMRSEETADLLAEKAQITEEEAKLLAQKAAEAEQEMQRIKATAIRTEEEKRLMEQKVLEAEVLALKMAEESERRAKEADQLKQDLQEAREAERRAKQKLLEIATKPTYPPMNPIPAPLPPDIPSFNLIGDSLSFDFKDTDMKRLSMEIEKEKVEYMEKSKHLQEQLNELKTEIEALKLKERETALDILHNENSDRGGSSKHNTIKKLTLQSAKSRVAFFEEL
UniProt O14646: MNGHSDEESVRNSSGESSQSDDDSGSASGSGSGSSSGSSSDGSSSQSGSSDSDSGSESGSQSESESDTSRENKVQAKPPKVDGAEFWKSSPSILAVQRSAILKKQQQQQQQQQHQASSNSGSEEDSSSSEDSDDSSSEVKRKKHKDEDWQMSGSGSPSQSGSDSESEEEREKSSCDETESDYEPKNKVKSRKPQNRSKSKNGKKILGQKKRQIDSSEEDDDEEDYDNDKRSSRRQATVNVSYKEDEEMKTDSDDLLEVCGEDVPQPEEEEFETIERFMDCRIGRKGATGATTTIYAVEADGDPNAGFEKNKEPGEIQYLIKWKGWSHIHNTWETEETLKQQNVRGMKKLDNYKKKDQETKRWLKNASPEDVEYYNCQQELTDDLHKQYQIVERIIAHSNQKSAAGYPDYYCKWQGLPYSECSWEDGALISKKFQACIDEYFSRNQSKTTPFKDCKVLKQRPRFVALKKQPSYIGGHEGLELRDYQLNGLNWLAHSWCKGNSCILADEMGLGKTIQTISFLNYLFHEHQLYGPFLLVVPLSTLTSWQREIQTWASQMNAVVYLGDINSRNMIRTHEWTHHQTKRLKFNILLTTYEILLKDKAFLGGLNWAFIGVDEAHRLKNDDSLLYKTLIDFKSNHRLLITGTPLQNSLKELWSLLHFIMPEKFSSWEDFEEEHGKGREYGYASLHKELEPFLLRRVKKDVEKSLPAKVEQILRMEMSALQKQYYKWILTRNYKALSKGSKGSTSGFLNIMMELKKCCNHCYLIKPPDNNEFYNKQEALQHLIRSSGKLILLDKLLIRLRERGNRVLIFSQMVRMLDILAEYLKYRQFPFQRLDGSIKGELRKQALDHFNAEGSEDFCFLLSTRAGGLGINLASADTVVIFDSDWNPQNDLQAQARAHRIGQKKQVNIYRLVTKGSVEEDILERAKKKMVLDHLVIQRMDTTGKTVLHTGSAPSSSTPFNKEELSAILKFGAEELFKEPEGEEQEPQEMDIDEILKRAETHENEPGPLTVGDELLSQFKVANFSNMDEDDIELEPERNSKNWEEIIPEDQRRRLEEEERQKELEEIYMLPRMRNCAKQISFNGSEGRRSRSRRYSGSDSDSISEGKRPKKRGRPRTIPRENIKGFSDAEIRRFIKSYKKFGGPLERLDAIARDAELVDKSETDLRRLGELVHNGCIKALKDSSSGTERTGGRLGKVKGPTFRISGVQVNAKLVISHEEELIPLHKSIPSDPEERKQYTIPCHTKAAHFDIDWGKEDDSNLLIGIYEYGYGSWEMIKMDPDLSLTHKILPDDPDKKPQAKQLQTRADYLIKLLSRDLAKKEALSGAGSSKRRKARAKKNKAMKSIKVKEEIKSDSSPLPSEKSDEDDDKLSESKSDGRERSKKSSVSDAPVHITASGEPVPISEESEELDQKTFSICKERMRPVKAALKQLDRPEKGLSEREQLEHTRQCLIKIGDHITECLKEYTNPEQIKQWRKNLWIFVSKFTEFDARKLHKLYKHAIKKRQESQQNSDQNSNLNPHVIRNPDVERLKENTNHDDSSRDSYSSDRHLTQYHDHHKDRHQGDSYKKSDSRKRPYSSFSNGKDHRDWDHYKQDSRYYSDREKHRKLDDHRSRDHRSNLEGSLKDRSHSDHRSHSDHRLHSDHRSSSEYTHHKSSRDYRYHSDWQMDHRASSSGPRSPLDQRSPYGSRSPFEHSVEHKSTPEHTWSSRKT
UniProt Q9Y4B6: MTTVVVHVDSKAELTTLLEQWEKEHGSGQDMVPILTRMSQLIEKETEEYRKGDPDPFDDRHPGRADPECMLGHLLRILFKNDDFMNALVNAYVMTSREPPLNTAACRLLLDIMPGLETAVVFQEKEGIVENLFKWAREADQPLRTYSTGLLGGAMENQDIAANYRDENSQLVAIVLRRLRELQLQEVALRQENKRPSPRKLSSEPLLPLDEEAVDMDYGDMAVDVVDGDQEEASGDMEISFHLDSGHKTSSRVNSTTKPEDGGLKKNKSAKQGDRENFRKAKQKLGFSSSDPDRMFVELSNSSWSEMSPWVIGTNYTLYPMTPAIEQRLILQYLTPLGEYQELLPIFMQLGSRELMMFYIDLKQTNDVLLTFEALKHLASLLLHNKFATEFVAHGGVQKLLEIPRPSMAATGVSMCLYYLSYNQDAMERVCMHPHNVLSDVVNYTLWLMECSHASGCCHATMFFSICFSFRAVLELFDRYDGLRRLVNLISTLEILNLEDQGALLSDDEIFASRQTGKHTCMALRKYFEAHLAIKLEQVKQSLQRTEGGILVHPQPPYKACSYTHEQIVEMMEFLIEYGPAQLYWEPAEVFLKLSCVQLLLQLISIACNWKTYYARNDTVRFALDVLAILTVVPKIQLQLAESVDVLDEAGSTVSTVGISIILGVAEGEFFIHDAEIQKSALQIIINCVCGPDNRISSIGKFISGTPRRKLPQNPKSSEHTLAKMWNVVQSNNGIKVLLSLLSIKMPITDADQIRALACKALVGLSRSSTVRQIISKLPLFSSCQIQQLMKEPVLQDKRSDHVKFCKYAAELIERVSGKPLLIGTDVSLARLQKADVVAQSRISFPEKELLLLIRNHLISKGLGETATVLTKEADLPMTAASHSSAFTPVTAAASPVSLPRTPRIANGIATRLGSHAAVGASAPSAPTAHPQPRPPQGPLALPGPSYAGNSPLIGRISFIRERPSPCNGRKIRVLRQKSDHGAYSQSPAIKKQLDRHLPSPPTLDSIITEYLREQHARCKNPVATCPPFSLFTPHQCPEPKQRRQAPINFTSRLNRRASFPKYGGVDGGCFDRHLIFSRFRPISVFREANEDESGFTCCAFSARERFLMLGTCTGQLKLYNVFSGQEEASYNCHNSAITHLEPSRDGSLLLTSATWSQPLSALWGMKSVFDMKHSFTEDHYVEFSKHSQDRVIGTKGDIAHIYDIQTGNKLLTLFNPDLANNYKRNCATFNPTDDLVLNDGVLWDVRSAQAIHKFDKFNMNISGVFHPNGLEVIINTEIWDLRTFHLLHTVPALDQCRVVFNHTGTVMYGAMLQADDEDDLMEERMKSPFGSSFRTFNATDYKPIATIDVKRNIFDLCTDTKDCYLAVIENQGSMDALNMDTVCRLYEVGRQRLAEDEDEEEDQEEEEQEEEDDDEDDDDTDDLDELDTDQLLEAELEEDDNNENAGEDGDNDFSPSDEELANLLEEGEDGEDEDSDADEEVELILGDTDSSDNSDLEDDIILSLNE

How the values were obtained:
[1] = molecular target: recombinant GST-Merlin ΔB41 (UniProt P35240); assay: pull-down; 'fishing': recombinant GST-Merlin proteins from Sf9 on Glutathione Sepharose beads (10 μl) added to cell lysates for 2 h, washed, eluted with LDS sample buffer; Western blot; only the target purified
Flag-Merlin A211D = Flag-Merlin A211D (UniProt P35240); assay: co-IP; Flag-tagged proteins transfected in HEK293T; lysis in PBS-E LB (1% TX100); Flag (M2) agarose IP; endogenous proteins by Western blot; in some panels after siRNA knock-downs or in dense or sparse cells
Flag-Merlin L46R = Flag-Merlin L46R (UniProt P35240); assay: as above
Flag-Merlin L64P = Flag-Merlin L64P (UniProt P35240); assay: as above
Flag-Merlin ΔF118 = Flag-Merlin ΔF118 (UniProt P35240); assay: as above
[2] = molecular target: recombinant GST-Merlin L46R (UniProt P35240); assay: pull-down; 'fishing': recombinant GST-Merlin proteins from Sf9 on Glutathione Sepharose beads (10 μl) added to cell lysates for 2 h, washed, eluted with LDS sample buffer; Western blot; only the target purified
[3] = molecular target: GST-Merlin C-terminal half; assay: pull-down; GST-Merlin constructs transfected in and purified from HEK293T cells (glutathione beads); bound endogenous proteins by Western blot
[4] = molecular target: GST-Merlin N-terminal half; assay: as above
Flag-Merlin isoform 2 = assay: co-IP; Flag-tagged proteins transfected in HEK293T; lysis in PBS-E LB (1% TX100); Flag (M2) agarose IP; endogenous proteins by Western blot; in some panels after siRNA knock-downs or in dense or sparse cells

CHD1 (from UniProt O14646 1-1710)
binding [1]: no binding

VPRBP (from UniProt Q9Y4B6 1-1507)
binding (Flag-Merlin A211D): binds | binding (Flag-Merlin L46R): binds | binding (Flag-Merlin L64P): binds | binding (Flag-Merlin ΔF118): binds | binding [2]: binds | binding [1]: binds

B1: TAT-SF1 (protein, UniProt O43719 1-755)
chain: MSGTNLDGNDEFDEQLRMQELYGDGKDGDTQTDAGGEPDSLGQQPTDTPYEWDLDKKAWFPKITEDFIATYQANYGFSNDGASSSTANVEDVHARTAEEPPQEKAPEPTDARKKGEKRKAESGWFHVEEDRNTNVYVSGLPPDITVDEFIQLMSKFGIIMRDPQTEEFKVKLYKDNQGNLKGDGLCCYLKRESVELALKLLDEDEIRGYKLHVEVAKFQLKGEYDASKKKKKCKDYKKKLSMQQKQLDWRPERRAGPSRMRHERVVIIKNMFHPMDFEDDPLVLNEIREDLRVECSKFGQIRKLLLFDRHPDGVASVSFRDPEEADYCIQTLDGRWFGGRQITAQAWDGTTDYQVEETSREREERLRGWEAFLNAPEANRGLRRSDSVSASERAGPSRARHFSEHPSTSKMNAQETATGMAFEEPIDEKKFEKTEDGGEFEEGASENNAKESSPEKEAEEGCPEKESEEGCPKRGFEGSCSQKESEEGNPVRGSEEDSPKKESKKKTLKNDCEENGLAKESEDDLNKESEEEVGPTKESEEDDSEKESDEDCSEKQSEDGSEREFEENGLEKDLDEEGSEKELHENVLDKELEENDSENSEFEDDGSEKVLDEEGSEREFDEDSDEKEEEEDTYEKVFDDESDEKEDEEYADEKGLEAADKKAEEGDADEKLFEESDDKEDEDADGKEVEDADEKLFEDDDSNEKLFDEEEDSSEKLFDDSDERGTLGGFGSVEEGPLSTGSSFILSSDDDDDDI
binding [3]: no binding | binding [4]: no binding | binding (Flag-Merlin isoform 2): binds

B2: AMOTL1 (protein, UniProt Q8IY63 1-956)
chain: MWRAKLRRGTCEPAVKGSPSACYSPSSPVQVLEDSTYFSPDFQLYSGRHETSALTVEATSSIREKVVEDPLCNFHSPNFLRISEVEMRGSEDAAAGTVLQRLIQEQLRYGTPTENMNLLAIQHQATGSAGPAHPTNNFSSTENLTQEDPQMVYQSARQEPQGQEHQVDNTVMEKQVRSTQPQQNNEELPTYEEAKAQSQFFRGQQQQQQQQGAVGHGYYMAGGTSQKSRTEGRPTVNRANSGQAHKDEALKELKQGHVRSLSERIMQLSLERNGAKQHLPGSGNGKGFKVGGGPSPAQPAGKVLDPRGPPPEYPFKTKQMMSPVSKTQEHGLFYGDQHPGMLHEMVKPYPAPQPVRTDVAVLRYQPPPEYGVTSRPCQLPFPSTMQQHSPMSSQTSSASGPLHSVSLPLPLPMALGAPQPPPAASPSQQLGPDAFAIVERAQQMVEILTEENRVLHQELQGYYDNADKLHKFEKELQRISEAYESLVKSTTKRESLDKAMRNKLEGEIRRLHDFNRDLRDRLETANRQLSSREYEGHEDKAAEGHYASQNKEFLKEKEKLEMELAAVRTASEDHRRHIEILDQALSNAQARVIKLEEELREKQAYVEKVEKLQQALTQLQSACEKREQMERRLRTWLERELDALRTQQKHGNGQPANMPEYNAPALLELVREKEERILALEADMTKWEQKYLEESTIRHFAMNAAATAAAERDTTIINHSRNGSYGESSLEAHIWQEEEEVVQANRRCQDMEYTIKNLHAKIIEKDAMIKVLQQRSRKDAGKTDSSSLRPARSVPSIAAATGTHSRQTSLTSSQLAEEKKEEKTWKGSIGLLLGKEHHEHASAPLLPPPPTSALSSIASTTAASSAHAKTGSKDSSTQTDKSAELFWPSMASLPSRGRLSTTPAHSPVLKHPAAKGTAEKLENSPGHGKSPDHRGRVSSLLHKPEFPDGEMMEVLI
binding [3]: binds
